Experimental data from US20230265065A1 (WEST VIRGINIA UNIVERSITY BOARD OF GOVERNORS ON BEHALF OF …, priority 2020, published 2023).
For some assays here: The name of at least one read-out is uncertain. Some results were stated once for a whole list of compounds, not compound by compound.

Columns and labels:
[1] = tested on: LAR-PTP subfamily (LAR, PTPRσ, and PTPR^δ); experiment: PTP panel screen, LAR-PTP subfamily; type: biochemical, human; details: panel also with PTP1B, SHP2, and CD45
Description: We screen illudalogs against a panel of PTPs including PTPRD, as illustrated in FIG. 16. […] Typical experimental conditions are 5-10 nM enzyme, 1-10 μM DiFMUP, and 250 nM inhibitor at 37° C.

[2] = molecular target: T1, LAR (Homo sapiens, UniProt P10586); experiment: Standard phosphatase assay (DiFMUP) with LAR, pH 6.5, 22° C.; details: pseudo-first order conditions (infinite inhibitor concentration)
T1 sequence (P10586 1352-1607): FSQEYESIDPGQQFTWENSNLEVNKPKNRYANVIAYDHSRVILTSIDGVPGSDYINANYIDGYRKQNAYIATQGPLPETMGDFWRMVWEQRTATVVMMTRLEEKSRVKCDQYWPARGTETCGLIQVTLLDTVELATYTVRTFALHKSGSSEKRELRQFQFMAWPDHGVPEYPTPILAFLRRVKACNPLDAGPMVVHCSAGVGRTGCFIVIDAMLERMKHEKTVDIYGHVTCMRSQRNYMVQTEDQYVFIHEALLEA

## CC1(C)CCc2c(O)c(C=O)c3c(c2C1)C(=O)OC(O)C3 (centres unmarked) [IA2-9Me2]
[1]; listed as Compound 16
  potency and selectivity for the LAR subfamily: potent and selective for the LAR-PTP subfamily

## CC1(C)Cc2c(O)c(C=O)c3c(c2C1)C(=O)OC(O)C3 (centres unmarked) [illudalic acid, reference compound]
[2]
  protein deactivation half-life t∞1/2: 0.5 min

## CC1(C)CCc2c(c(O)c(C=O)c3c2C(=O)OC(O)C3)C1 (centres unmarked) [IA2-8Me2]
[1]; listed as Compound 15
  potency and selectivity for the LAR subfamily: potent and selective for the LAR-PTP subfamily

## O=Cc1c(O)c2c(c3c1CC(O)OC3=O)CCC2 (centres unmarked) [IA1-8H2]
[1]
  potency and selectivity for the LAR subfamily: potent and selective for the LAR-PTP subfamily

## O=Cc1c(O)c2c(c3c1CC(O)OC3=O)CCCC2 (centres unmarked) [IA2]
[1]
  potency and selectivity for the LAR subfamily: potent and selective for the LAR-PTP subfamily
